Source: the supplement of paper PMC10849652
Some of the results follow.

Sequences of proteins named here, by UniProt entry; tags and fusion partners are left off. A change or cut given only in a name is not applied to a line headed by its entry.
UniProt O43390: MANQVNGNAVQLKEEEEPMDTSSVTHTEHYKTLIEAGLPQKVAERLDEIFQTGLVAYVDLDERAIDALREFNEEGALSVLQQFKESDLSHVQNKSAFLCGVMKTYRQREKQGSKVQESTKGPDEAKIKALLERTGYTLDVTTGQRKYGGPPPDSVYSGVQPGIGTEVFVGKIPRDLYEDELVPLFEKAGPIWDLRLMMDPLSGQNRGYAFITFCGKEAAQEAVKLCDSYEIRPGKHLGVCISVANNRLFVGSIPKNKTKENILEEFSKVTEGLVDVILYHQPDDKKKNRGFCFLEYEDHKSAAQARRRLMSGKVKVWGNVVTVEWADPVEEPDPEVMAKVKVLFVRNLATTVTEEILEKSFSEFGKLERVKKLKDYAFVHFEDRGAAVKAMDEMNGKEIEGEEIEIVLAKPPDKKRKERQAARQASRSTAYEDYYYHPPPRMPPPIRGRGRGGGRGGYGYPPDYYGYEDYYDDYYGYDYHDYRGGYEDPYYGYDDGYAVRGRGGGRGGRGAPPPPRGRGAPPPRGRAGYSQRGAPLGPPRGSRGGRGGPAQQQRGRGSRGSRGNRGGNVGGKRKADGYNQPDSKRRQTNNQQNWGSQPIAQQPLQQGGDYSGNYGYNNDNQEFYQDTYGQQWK
UniProt P05114: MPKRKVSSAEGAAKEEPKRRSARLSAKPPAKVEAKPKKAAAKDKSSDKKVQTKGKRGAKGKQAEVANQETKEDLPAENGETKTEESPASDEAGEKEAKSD
UniProt P14210, whole entry, looked up: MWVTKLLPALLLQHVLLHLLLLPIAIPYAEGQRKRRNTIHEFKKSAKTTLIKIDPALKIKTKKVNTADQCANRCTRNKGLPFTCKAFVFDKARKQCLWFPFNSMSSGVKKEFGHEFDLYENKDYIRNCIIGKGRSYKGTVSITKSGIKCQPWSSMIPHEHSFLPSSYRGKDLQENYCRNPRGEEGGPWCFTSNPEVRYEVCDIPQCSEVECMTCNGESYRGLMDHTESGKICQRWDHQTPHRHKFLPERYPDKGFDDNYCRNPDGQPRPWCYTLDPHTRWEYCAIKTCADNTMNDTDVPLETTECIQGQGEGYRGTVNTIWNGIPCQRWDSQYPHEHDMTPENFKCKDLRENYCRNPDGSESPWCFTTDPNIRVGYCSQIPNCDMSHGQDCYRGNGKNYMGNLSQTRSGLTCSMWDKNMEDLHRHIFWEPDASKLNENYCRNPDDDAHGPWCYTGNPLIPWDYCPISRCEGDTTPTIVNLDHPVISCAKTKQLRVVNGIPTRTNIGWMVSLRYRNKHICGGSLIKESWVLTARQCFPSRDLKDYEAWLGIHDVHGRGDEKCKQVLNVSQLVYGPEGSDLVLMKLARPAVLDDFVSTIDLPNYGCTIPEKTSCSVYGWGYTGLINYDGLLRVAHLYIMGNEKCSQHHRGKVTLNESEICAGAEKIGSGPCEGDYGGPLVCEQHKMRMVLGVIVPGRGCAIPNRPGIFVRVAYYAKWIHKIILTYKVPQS
UniProt P35914: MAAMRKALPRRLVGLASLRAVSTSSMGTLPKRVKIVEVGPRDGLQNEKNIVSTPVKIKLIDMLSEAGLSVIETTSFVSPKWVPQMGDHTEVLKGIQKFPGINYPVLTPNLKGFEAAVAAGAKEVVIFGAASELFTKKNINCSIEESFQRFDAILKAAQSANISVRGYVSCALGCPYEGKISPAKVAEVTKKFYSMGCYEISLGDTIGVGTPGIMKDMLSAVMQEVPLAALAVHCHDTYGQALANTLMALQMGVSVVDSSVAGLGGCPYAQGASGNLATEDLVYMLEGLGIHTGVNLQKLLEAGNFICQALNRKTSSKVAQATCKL
UniProt Q8TDG4: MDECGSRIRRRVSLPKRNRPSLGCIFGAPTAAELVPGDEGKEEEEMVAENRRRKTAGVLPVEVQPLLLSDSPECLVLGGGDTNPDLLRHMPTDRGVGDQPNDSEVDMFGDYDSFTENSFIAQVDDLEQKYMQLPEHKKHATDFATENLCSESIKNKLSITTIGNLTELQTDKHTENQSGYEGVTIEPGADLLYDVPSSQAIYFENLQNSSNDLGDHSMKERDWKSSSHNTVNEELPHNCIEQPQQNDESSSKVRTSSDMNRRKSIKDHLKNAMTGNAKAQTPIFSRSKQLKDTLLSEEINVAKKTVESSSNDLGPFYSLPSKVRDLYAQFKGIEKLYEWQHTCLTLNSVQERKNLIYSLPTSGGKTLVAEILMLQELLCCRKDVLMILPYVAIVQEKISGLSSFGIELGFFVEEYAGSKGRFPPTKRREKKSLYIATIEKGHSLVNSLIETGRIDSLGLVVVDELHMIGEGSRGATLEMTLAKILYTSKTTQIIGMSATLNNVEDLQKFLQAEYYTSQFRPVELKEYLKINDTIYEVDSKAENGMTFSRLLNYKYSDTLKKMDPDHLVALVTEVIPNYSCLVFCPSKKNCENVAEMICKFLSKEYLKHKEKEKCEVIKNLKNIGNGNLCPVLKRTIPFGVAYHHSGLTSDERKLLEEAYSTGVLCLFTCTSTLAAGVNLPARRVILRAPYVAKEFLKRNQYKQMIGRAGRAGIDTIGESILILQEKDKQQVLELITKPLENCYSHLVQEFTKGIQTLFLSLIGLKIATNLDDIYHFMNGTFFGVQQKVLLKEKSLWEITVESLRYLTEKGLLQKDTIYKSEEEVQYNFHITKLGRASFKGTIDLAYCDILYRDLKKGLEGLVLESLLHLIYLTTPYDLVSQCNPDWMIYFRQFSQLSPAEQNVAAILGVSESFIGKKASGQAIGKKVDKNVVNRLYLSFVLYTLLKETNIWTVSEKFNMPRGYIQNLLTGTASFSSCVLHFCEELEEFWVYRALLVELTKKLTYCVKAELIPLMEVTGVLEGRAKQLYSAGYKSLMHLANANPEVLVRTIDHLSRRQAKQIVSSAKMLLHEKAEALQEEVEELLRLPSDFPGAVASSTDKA
UniProt Q53FT3: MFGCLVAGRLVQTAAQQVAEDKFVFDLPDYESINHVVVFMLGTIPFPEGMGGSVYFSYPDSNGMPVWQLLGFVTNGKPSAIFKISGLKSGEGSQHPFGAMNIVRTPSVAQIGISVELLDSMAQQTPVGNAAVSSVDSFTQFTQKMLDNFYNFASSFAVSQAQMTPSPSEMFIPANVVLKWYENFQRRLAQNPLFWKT
UniProt Q9BUJ2: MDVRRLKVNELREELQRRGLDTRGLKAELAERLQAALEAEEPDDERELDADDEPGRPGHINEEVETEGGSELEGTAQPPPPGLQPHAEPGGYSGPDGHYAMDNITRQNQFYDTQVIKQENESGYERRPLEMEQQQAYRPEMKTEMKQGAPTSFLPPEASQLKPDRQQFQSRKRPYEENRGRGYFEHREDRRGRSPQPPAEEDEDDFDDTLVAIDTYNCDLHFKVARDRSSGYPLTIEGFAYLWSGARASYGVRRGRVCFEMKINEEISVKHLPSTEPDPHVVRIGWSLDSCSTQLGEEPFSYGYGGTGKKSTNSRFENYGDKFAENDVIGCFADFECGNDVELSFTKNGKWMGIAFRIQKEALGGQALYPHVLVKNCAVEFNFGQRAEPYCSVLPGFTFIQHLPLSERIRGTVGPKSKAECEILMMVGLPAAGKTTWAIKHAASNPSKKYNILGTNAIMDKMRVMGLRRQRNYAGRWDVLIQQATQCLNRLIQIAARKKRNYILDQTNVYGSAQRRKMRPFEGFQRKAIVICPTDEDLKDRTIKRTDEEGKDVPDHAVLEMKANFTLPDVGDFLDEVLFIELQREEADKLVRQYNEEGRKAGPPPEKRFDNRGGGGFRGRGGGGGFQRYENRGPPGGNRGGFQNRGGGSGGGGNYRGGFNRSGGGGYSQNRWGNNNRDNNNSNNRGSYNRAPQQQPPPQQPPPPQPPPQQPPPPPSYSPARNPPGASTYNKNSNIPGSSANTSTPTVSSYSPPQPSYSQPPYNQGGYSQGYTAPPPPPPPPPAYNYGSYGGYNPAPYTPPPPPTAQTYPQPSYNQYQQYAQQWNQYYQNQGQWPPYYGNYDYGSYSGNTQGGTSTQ
UniProt H0YH80: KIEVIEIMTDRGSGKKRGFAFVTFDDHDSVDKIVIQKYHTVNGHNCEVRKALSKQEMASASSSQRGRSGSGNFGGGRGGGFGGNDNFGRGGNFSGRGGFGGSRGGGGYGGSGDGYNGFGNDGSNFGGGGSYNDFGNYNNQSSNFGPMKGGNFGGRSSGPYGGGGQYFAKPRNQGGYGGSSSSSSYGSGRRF
UniProt P31943: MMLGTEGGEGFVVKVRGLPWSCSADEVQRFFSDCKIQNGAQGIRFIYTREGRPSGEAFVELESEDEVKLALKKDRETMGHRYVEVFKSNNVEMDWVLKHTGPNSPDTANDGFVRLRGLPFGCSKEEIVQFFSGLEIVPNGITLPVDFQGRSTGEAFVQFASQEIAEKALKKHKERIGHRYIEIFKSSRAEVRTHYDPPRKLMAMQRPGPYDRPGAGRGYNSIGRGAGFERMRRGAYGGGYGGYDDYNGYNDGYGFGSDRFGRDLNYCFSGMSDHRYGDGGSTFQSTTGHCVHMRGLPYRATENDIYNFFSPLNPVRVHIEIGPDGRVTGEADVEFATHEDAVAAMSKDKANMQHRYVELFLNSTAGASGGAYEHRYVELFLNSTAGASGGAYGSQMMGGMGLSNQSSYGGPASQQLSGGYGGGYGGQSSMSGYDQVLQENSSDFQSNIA
UniProt Q5GLZ8: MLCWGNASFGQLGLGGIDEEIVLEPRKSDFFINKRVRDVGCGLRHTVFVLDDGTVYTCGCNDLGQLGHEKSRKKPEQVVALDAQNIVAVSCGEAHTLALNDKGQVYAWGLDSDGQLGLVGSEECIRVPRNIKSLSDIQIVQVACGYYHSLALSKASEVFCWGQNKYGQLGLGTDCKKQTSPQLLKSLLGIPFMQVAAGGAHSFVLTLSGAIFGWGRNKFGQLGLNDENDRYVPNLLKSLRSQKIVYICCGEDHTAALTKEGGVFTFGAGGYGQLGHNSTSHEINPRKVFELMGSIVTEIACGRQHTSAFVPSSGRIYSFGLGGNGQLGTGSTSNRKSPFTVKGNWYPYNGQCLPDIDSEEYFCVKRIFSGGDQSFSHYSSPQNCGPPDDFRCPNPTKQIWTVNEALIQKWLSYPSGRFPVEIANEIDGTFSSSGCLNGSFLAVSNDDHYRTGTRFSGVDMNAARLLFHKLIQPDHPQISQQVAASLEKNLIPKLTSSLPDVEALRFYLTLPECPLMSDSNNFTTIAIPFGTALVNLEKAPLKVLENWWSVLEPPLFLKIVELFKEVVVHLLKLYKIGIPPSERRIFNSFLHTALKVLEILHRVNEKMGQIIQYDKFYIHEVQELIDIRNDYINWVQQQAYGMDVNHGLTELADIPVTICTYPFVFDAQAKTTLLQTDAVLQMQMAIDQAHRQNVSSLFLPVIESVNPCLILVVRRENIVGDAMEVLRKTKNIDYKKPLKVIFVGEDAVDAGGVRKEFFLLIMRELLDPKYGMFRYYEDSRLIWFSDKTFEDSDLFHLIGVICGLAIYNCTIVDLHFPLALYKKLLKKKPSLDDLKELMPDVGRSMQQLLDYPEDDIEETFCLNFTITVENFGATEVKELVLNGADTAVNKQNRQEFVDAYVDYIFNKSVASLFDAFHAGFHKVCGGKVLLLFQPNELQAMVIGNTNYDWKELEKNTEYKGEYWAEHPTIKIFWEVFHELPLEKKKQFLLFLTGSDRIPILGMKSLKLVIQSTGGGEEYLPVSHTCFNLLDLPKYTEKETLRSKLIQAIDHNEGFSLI
UniProt Q5T447: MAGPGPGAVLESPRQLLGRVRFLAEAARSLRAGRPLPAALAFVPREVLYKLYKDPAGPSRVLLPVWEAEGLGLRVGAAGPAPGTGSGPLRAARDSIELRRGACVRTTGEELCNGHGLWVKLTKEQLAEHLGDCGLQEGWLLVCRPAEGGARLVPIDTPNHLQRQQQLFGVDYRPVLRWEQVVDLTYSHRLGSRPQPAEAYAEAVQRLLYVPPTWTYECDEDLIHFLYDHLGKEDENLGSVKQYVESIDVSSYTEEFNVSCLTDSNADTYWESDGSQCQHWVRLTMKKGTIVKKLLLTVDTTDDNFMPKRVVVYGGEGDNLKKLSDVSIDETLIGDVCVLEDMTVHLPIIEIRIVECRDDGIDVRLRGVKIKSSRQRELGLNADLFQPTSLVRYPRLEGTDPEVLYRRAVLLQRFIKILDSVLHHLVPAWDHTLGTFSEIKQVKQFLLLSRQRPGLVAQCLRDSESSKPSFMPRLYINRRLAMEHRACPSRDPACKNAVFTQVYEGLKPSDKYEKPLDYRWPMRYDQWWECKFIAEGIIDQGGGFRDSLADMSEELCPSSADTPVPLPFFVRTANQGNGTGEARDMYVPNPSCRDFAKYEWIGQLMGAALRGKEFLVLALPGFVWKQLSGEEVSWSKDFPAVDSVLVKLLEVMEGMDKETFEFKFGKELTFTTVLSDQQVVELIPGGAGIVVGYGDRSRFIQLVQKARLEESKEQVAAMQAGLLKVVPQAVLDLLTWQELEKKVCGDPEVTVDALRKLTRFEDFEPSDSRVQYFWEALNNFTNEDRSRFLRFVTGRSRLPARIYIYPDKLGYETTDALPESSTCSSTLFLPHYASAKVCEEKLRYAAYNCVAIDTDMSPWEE
UniProt O75506: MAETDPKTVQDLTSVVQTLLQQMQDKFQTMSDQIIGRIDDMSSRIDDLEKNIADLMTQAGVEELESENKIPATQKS

compound: CN1CC[C@H](c2c(O)cc(O)c3c(=O)cc(-c4ccccc4Cl)oc23)[C@H](O)C1 [alvocidib]; assay: log2 fold change, soluble protein after heating vs DMSO (PISA); higher = thermal stabilisation; K562 lysate, 10 uM; active = over 0.2 and 3.5 SD of the protein, either way, in both replicates (recomputed)
Method in brief: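 To prepare the extract, K562 pellets were dounce-homogenised in PBS pH 7.4 with 1 mM MgCl2, giving crude material at 1 mg/mL protein. This was treated with 10 μM compound for 30 min, then heated in aliquots for 3 min over 48°C-58°C before pooling and addition of NP-40 to 0.5% at 4°C. Centrifugation at 21,000xg for 90 min left soluble protein in the supernatant, which TMTpro 16plex LC-MS/MS quantified with equalised channel sums. Results are log-two fold changes in thermal stability compared with solvent controls, from duplicates.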

log2 fold change, inactive:
HSPA14 (UniProt Q0VDF9) 0.001
HEXIM1 (UniProt O94992) -0.047
HNRNPR (UniProt O43390) -0.04
HINT3 (UniProt Q9NQE9) 0.023
HMGN1 (UniProt P05114) 0.044
HNRNPDL (UniProt O14979) 0.01
HEMGN (UniProt Q9BXL5) 0.038
HGF (UniProt P14210) -0.06
HMGCL (UniProt P35914) 0.013
HSPA13 (UniProt P48723) 0.027
HNRNPA1 (UniProt P09651) -0.011
HELQ (UniProt Q8TDG4) 0.059
HIF1AN (UniProt Q9NWT6) -0.003
HM13 isoform 2 (UniProt Q8TCT9) -0.004
HSD17B10 (UniProt Q99714) -0.02
HMG20A (UniProt Q9NP66) -0.048
HP1BP3 (UniProt Q5SSJ5) -0.02
HELZ (UniProt P42694) -0.064
HEPH isoform 3 (UniProt Q9BQS7) -0.021
HPRT1 (UniProt P00492) 0.019
HIKESHI (UniProt Q53FT3) 0.027
HNRNPUL1 (UniProt Q9BUJ2) 0.006
HNRNPA1 (UniProt H0YH80) 0.079
HNRNPA0 (UniProt Q13151) -0.031
HNRNPH1 (UniProt P31943) -0.021
HSD17B11 (UniProt Q8NBQ5) 0.013
HERC4 (UniProt Q5GLZ8) -0.025
HSDL1 (UniProt Q3SXM5) -0.082
HMGB1 (UniProt P09429) 0.126
HSF1 (UniProt Q00613) 0.033
HECTD3 (UniProt Q5T447) 0.007
HSBP1 (UniProt O75506) -0.056
HNRNPAB isoform 3 (UniProt Q99729) -0.018

Pulled one by one from the list above, 3 records:
log2 fold change, inactive:
HIF1AN (UniProt Q9NWT6) -0.003
HNRNPUL1 (UniProt Q9BUJ2) 0.006
HNRNPAB isoform 3 (UniProt Q99729) -0.018
